This is an account of results in article PMC6509286.

In the series the test system is MBP-core RAG1 (cRAG1) + MBP-core RAG2 (cRAG2) + HMGB1. The experiment in a line: EMSA. Conditions: Ca2+ (1 mM), EMSA: 25 mM MOPS pH 7.0, 50 mM KOAc, 1 mM DTT, 100 ug/ml BSA, 1 mM Ca2+ (in place of Mg2+), 2 nM probe, ~80 nM RAG, 400 nM HMGB1, 37 C 15 min, 4% gel at 4 C, recombinant protein, protein details: MBP,MBP,none (N-terminal 6xHis removed by TEV), label: 32P.

For at least one entry, the source does not settle the construct or the ends of the probe. At least one verdict rests on a figure or table, not on a statement of the authors.

With “CTGCAGGGTTTTTGTTCCAGTCTGTAGCACTGTGCACAGTGGTAGTACTCCACTGTCTGGCTGTACAAAAACCCTGCAG (double strand) [SJ (signal joint; SJ1, MBNSJ)]”, the binding result (HMGB1, additional slower complex C) is listed as “binds”.
“GATCTGGCCTGTCTTACACAGTGCTACAGACTGGAACAAAAACCCTGCAG (double strand) [12-RSS]”: the binding result (HMGB1, complexes SC1/2, HSC1/2) is listed as “binds”.
On to “GATCTGGCCTGTCTTACACAGTGGTAGTACTCCACTGTCTGGCTGTACAAAAACCCTGCAG (double strand) [23-RSS]”, for which, where the note is “HMGB1, complexes SC1/2, HSC1/2”, the binding result was “binds”.
